Test results published in article PMC12040169 (PLOS Biology, 2025).
Some of the results follow.

Each compound was assayed on T1, CTL2-GFP (C. trachomatis L2/434/Bu, GFP-expressing). Details: bulk GFP, single well; 28.5 h, 10 µM; inhibitor.
T1 construct: L2/434/Bu, GFP-expressing
Parameters: species or system HeLa; Intracellular C. trachomatis growth in HeLa cells, bulk GFP fluorescence relative to DMSO

| Compound | % of control remaining [%] |
| --- | --- |
| COc1ncccc1C(=O)N1Cc2ccccc2C1 [CBK200324] | 87.9684 |
| OCc1cccc(-c2cncc(NCCc3cccnc3)n2)c1 [CBK037946] | 190.774 |
| CC(C)c1cccc(C(C)C)c1OCCNCCO [CBK262750] | 100 |
| Cc1sc2ncn(CCC(=O)O)c(=O)c2c1C [CBK288191] | 91.2031 |
| CCN1CCCC1CN(Cc1cccs1)CC1CCOC1 (stereo not shown) [CBK282602] | 90.7593 |
| O=C(c1ccccc1)N1CCC(c2cccc(Cc3ccccc3Cl)n2)CC1 [CBK286085] | 99.8921 |
| CCCN(C(=O)OC(C)(C)C)C1CCc2[nH]c(=O)c(C#N)cc2C1 (stereo not shown) [CBK023470] | 126.378 |
| Cc1nonc1CC(=O)N1CCC[C@@H]2[C@H]1C/C=C/Cc1ccccc1OCC(=O)N2C [CBK292062] | 149.369 |
| COc1ccc(C(C)N(CCN2CCOCC2)C(=O)NCc2cccnc2)cc1OC (stereo not shown) [CBK158986] | 90.9206 |
| Cc1ccc(C(F)(F)F)cc1NS(=O)(=O)c1cc(OC2CCNCC2)c2occc2c1 [CBK082763C] | 140.963 |
| COCCNc1cc(-c2cccc3oc4ccccc4c23)ncn1 [CBK090794] | 228.467 |
| COC(=O)[C@@H]1CN(C(=O)c2cccs2)CCN1C(=O)c1cccnc1 [CBK289610] | 119.75 |
| CC(Sc1nnc(-c2ccc(Cl)cc2)n1CC(=O)O)C(=O)Nc1ccnn1C(C)C (stereo not shown) [CBK296970] | 170.444 |
| Cc1nc(CN2CCN(C(=O)NCCc3cnn(C)c3)CC2)cs1 [CBK305614] | 144.663 |
| CC(C)CNC(=O)c1cccc(NC(=O)N2CCC2c2cccs2)c1 (stereo not shown) [CBK306927] | 73.5403 |
| CC(=O)OC(c1ccccc1)c1nc2ccccc2[nH]1 (stereo not shown) [CBK110141] | 83.1319 |
| CC(=O)C(/N=N\c1ccc(S(=O)(=O)Nc2nccs2)cc1)C(=O)Nc1ccc(Cl)cc1 (stereo not shown) [CBK015826] | 134.824 |
| Cc1ccc(NC(=O)/C=C/c2ccc3c(c2)OCO3)c(NC(=O)/C=C/c2ccc3c(c2)OCO3)c1 [CBK265423] | 102.657 |
| Cc1cc(CC(=O)N2CCN(C(=O)c3ccco3)CC2)on1 [CBK144465] | 128.405 |
| O=C(CO)N1CC2(CCN(CCO)CC2)c2ccccc21 [CBK131507] | 124.523 |
| CCNC(=O)N[C@H]1CO[C@H]2[C@@H]1OC[C@@H]2n1nnnc1Oc1ccccc1 [CBK289484] | 111.138 |
| Cc1ccc(-n2c(SCC(=O)N3CCc4ccccc43)nnc2-c2ccccc2O)c(C)c1 [CBK268793] | 163.487 |
| CC(C)(C)c1nnc(NC(=O)c2ccc(F)cc2)s1 [CBK086855] | 120.986 |
| COc1ccc(NC2c3cccc4cccc(c34)C2NS(=O)(=O)c2ccccc2)cc1 (stereo not shown) [CBK264075] | 87.3275 |
| Fc1ccc(CN2CCC(c3nnc4n3CCCCC4)CC2)cc1F [CBK283356] | 123.673 |
| N#CC(c1ccc(O)cc1)N1CCOCC1 (stereo not shown) [CBK261659] | 100.647 |
| Cc1noc(NS(=O)(=O)c2ccc(NC(=O)COc3ccccc3Br)cc2)c1C [CBK263918] | 32.4015 |

| Compound | % of control remaining [%] |
| --- | --- |
| CS(=O)(=O)Nc1nccnc1N1CCN(c2ccccc2)CC1 [CBK048688] | 124.383 |
| COc1cncc(C(NC(=O)c2cc(=O)cc(C)o2)[C@H]2C[C@@H](O)C2)c1 (stereo partly shown) [CBK306833] | 133.458 |
| CCCN(C(C)=O)c1nc(O)cc(C(F)(F)F)n1 [CBK000427] | 101.55 |
| COc1cccc(N2C(=O)N[C@@H]3CCN(C(=O)c4cccs4)[C@@H]3C2=O)c1 [CBK289279] | 124.28 |
| CCOCC1CN(c2cc(CO)c(F)cn2)CCO1 (stereo not shown) [CBK304756] | 134.645 |
| CN1CCC(C(=O)N2CCN(CCc3ccccc3)CC2)CC1 [CBK200216] | 129.502 |
| Cc1ccc(NC2CC(C)N(C(=O)c3cccc([N+](=O)[O-])c3)c3ccc(C)cc32)cc1 (stereo not shown) [CBK293929] | 127.042 |
| CCOc1ccc(S(=O)(=O)Nc2ccc(C(=O)O)c(O)c2)cc1 [CBK299837] | 155.785 |
| C(=C\c1nccnc1OCc1ccccn1)/c1ccccc1 [CBK106874] | 97.3976 |
| FC(F)(F)c1cc(-c2cn3ccnc3c(Nc3ccc4[nH]ccc4c3)n2)cc(C(F)(F)F)c1 [CBK066356] | 111.842 |
| Cc1c(NC(=O)Nc2ccccc2)sc(=S)n1C [CBK027434] | 107.526 |
| COc1ccc(NC(=O)CSc2nnc(-c3ccncc3)n2-c2ccc(C)cc2)cc1Cl [CBK266187] | 149.838 |
| CC(C)CC(=O)N1C[C@H]2CCCN(Cc3ccccn3)[C@H]2C1 [CBK285269] | 127.148 |
| O=C(c1cncc(-c2[nH]nnc2-c2ccccc2)c1)N1CCCC1 [CBK160360] | 127.412 |
| Cc1cc(C)nc(N2CCC(CC(=O)NCCCc3ccc(F)cc3)CC2)n1 [CBK285995] | 128.213 |
| O=C(Nc1nc(-c2cccc([N+](=O)[O-])c2)cs1)c1ccc(S(=O)(=O)N2CCCC2)cc1 [CBK102813] | 113.839 |
| CO[C@H]1CN(C)C[C@@H]1NC(=O)c1cccc2c1NCCC2 [CBK307107] | 118.003 |
| CCCCOC(=O)CCNc1n[nH]c(=O)[nH]c1=O [CBK027838] | 105.048 |
| COc1ccc(C2Nc3ccccc3C(=O)N2c2ccc(C)cc2)cc1Cn1nc(C)c([N+](=O)[O-])c1C (stereo not shown) [CBK263703] | 67.9054 |
| Cc1nc(C(F)(F)F)ccc1C(=O)NCC(C)(C)N1CCCCC1 [CBK281864] | 162.92 |
| O=C(/C=C/c1ccccc1)Oc1cccc(NC(=O)C2CC(=O)N(c3ccccc3)C2)c1 (stereo not shown) [CBK264330] | 103.429 |
| CC(C)Nc1cncc(OCCCc2ccncc2)n1 [CBK115881] | 115.713 |
| Cc1cc2c(cc1C)N(C(=O)CSc1ncn[nH]1)C(C)(C)c1ssc(=S)c1-2 [CBK263786] | 109.745 |
| CCN1CCCCC1CNC(=O)c1sc(C)nc1C (stereo not shown) [CBK282206] | 113.209 |
| CN1CCN(Cc2c(O)ccc3occ(C(=O)c4ccccc4)c23)CC1 [CBK111438] | 108.966 |
| CCC(C)(C)c1ccc(S(=O)(=O)NCC2CC2)cc1 [CBK044994] | 113.52 |
| O=C(c1ccno1)N1CCC(Cc2ccccc2)CC1 [CBK200185] | 172.434 |

Single entries from the results shown:
In % of control remaining [%], `Cc1cc(CC(=O)N2CCN(C(=O)c3ccco3)CC2)on1` [CBK144465] is listed with 128.405
In % of control remaining [%], `Cc1sc2ncn(CCC(=O)O)c(=O)c2c1C` [CBK288191] is listed with 91.2031
In % of control remaining [%], `CC(C)CNC(=O)c1cccc(NC(=O)N2CCC2c2cccs2)c1` (stereo not shown) [CBK306927] is listed with 73.5403
In % of control remaining [%], `Cc1cc(C)nc(N2CCC(CC(=O)NCCCc3ccc(F)cc3)CC2)n1` [CBK285995] is listed with 128.213

The list goes on:

| Compound | % of control remaining [%] |
| --- | --- |
| Nc1ncc(-c2ccc(C(F)(F)F)cc2)c(C2CCCN(C(=O)c3ccccc3)C2)n1 (stereo not shown) [CBK285790] | 114.51 |
| N#Cc1ccc(COc2cccc(Cl)c2Cl)cc1 [CBK002611] | 170.813 |
| CCNC(=O)N1CC2(CCN(CCn3cccc3)CC2)c2ccccc21 [CBK143945] | 100 |
| NC(=O)CN1CCC(Cc2ccccc2)CC1 [CBK138319] | 97.2242 |
| Cc1c(C(=O)N2CCn3c(C)nnc3C2)sc2cccc(F)c12 [CBK304923] | 111.687 |
| O=C(C1=C(O)C(=O)N(CCCn2ccnc2)C1c1cccc([N+](=O)[O-])c1)c1cccs1 (stereo not shown) [CBK264591] | 100 |
| CC(=O)Nc1ccc(/C(C)=N\NC(=O)CCN2CCCCC2)cc1 [CBK263509] | 100 |
| COc1cc(-c2cn3ccnc3c(N3CCN(c4ccncc4)CC3)n2)cc(OC)c1OC [CBK037896] | 153.269 |
| CCN(C(=O)c1ccc(=O)[nH]c1)C(CC1CCCCC1)c1ccccc1 (stereo not shown) [CBK062678] | 58.7956 |
| COc1ccc(-c2cn(-c3ccc(OC(F)(F)F)cc3)nn2)cc1 [CBK113024] | 122.351 |
| O=C(NCCSCc1c(F)cccc1Cl)Nc1ccccc1 [CBK265340] | 98.1077 |
| COC(=O)Cn1c(=O)c2c(nc3oc(C(C)(C)C)cn32)n(C)c1=O [CBK306029] | 105.039 |
| CN1[C@@H](CCC(=O)N2CCN(c3ccccn3)CC2)CNC(=O)[C@H]2NCC[C@H]21 [CBK289031] | 107.288 |
| O=C(O)c1ccc(NC2OC(CO)C(O)C2O)cc1 (stereo not shown) [CBK218836] | 113.595 |
| O=C(CN1CCC(c2ccc(F)cc2)CC1)Nc1nccs1 [CBK283566] | 109.785 |
| Fc1cccc(-c2nc(-c3cccnc3)no2)c1 [CBK270260] | 150.036 |
| CC(=O)c1ccccc1-c1cnc(N(C)S(C)(=O)=O)c(C(=O)NCCc2ccccc2)c1 [CBK076516] | 126.497 |
| N=C(N)SCCCCSC(=N)N [CBK278304B] | 106.142 |
| CCC1(CC)OC(N[C@@H](CO)c2ccccc2)=NC1=O [CBK126756] | 139.014 |
| CN1CCN(C(=S)SCc2nc(N)nc(Nc3ccc(F)cc3)n2)CC1 [CBK265230] | 125.811 |
| CCC1(C)CC(=O)c2cc(NC(=O)N(CCO)CCO)ccc2O1 (stereo not shown) [CBK307003] | 100.735 |
| CC(C)NC(=O)c1sc2ccccc2c1C1CN(C(=O)CC2CCCCC2)CCO1 (stereo not shown) [CBK285869] | 131.843 |
| COc1ccc(C(=O)NC(NCc2ccco2)C(Cl)(Cl)Cl)cc1 (stereo not shown) [CBK262279] | 65.0542 |
| CC(=O)Nc1ccc(S(=O)(=O)N2CCC(N3CCOCC3)CC2)cc1 [CBK264653G] | 92.7584 |
| O=C(NCCCC1CCOC1)c1cc2ccc(F)cc2[nH]1 (stereo not shown) [CBK283213] | 70.9266 |
